This passage reports binding signal results from publication PMC7819943, “Rice protein-binding microarrays: a tool to detect cis-acting elements near promoter regions in rice”.

This is one part of the list.

The target of the assay is T1, OsSMF1 (Oryza sativa, UniProt Q6ZLB0 1-436).
T1 sequence: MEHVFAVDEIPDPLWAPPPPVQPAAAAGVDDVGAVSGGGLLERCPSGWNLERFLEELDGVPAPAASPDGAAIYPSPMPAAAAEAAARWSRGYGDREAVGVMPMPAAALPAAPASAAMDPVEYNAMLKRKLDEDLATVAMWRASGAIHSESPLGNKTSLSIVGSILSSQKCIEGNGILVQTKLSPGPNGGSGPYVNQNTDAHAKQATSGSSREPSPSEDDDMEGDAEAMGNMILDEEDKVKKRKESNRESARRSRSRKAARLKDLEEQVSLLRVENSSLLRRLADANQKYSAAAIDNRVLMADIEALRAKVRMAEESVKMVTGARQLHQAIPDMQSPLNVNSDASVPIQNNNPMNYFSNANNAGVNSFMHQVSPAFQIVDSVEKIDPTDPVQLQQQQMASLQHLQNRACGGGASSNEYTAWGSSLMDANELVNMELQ
Nature of the assay: protein-binding microarray (RPBM); PBS, 2% BSA, 51.3 ng/ul salmon testes DNA, 50 uM zinc acetate, 200 nM TF, 25 C, 1 h; high values mean tight binding. Particulars: protein: recombinant; tags: N-terminal polyhistidine and DsRed monomer fusion (pET32a); chain copies: 2; label: CyDye5-dUTP incorporated in the synthesized complementary strand; 3' TTTTT single-stranded linker to array surface; dsDNA, one strand shown. The method, boiled down:
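Transcription factors were made in E. coli BL21-CodonPlus as N-terminal fusions to a polyhistidine tag and DsRed, then purified on Ni–NTA. After primer extension with Cy5-dUTP and blocking with 2% BSA, a custom Agilent array was exposed for 1 h at 25 °C to 200 nM protein in PBS, 2% BSA, salmon testes DNA and 50 µM zinc acetate. Washed arrays were scanned on an Axon 4000B, and the binding signal is per-feature fluorescence intensity in arbitrary units.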
With “AAGAGTCGGGTTGTGCTGACCCAAAAGCACGACAGCCCATCGGAGTCACCTAGTGCAG”, the binding signal was 3250 fluorescence intensity (a.u.).

Regarding “AAATTGATGACTACTCCACTGCCACTTGCAACCTGTGAGCCGGAGTCACCTAGTGCAG”, the binding signal is 3550 fluorescence intensity (a.u.).

With “CTCTCGAAGCTGCCCTAGCCTCTCCGCTGCTCCGATCCACCGGAGTCACCTAGTGCAG”, the binding signal is 24500 fluorescence intensity (a.u.).

Turning to “CTCCCTTGCCTCGCTGTAGCACACGTGATTTCTCACCGCTCGGAGTCACCTAGTGCAG”, the binding signal was 3470 fluorescence intensity (a.u.).

As for “CCGGGGCCGGCAGCGGCGGGCGGGCGGGCTCGAGCGGTGGCGGAGTCACCTAGTGCAG”, the binding signal was 3580 fluorescence intensity (a.u.).

Take “CTGCACTACGCCGCAGACGAACTGACGTGGTCGTATAAAACGGAGTCACCTAGTGCAG”: the binding signal was 5790 fluorescence intensity (a.u.).

As for “AATGTTTCAGTTACTAATGATGTGGAAACAAAGAAGAGGACGGAGTCACCTAGTGCAG”, the binding signal was 3210 fluorescence intensity (a.u.).

In the case of “AAATACAGCCACGGTGCGTGCCTCGTCTCCTTGCATCCGCCGGAGTCACCTAGTGCAG”, the binding signal is 3340 fluorescence intensity (a.u.).

“ACGACAATAACATATGCCGTGCATGCCAGGTGGCGGCATCCGGAGTCACCTAGTGCAG”: the binding signal was 6000 fluorescence intensity (a.u.).

For the sequence “CCCTGCTTCCTTTCTTCATCGTCCTCAGCTCATCATCTGCCGGAGTCACCTAGTGCAG”, the binding signal is 3360 fluorescence intensity (a.u.).

In the case of “TTAAGATTCGTGCAGCCTCACTCGGACTTGTCATCTGATCCGGAGTCACCTAGTGCAG”, the binding signal was 3860 fluorescence intensity (a.u.).

Turning to “CCAATCTCGTCATCCTCTGTCATACAGAGCTTGCCGCTGCCGGAGTCACCTAGTGCAG”, the binding signal was 4650 fluorescence intensity (a.u.).

With “GGTTGATTATTCCGTCGGCGTCAGCCATCAGGTGCATCACCGGAGTCACCTAGTGCAG”, the binding signal is 3270 fluorescence intensity (a.u.).

With “GGCGGTAGTATATATAGTACGTGTACAACATCGTGAGAGACGGAGTCACCTAGTGCAG”, the binding signal is 3240 fluorescence intensity (a.u.).

In the case of “GGGATATGGAAACCACTAATACTAGTCATTTCGTCATGCTCGGAGTCACCTAGTGCAG”, the binding signal was 4260 fluorescence intensity (a.u.).

In the case of “GATGTGCATGGCACAAGATATACATAAATCTAAATTGCTGCGGAGTCACCTAGTGCAG”, the binding signal was 3220 fluorescence intensity (a.u.).

For “TCATCAAATGACTCTTCTACCCCTCCATTGCCCGGTCTAGCGGAGTCACCTAGTGCAG”, the binding signal was 14400 fluorescence intensity (a.u.).

As to “CGAAAAGTATTTTAGAACGGGATGGAGTAGTATAATACACCGGAGTCACCTAGTGCAG”, the binding signal was 3290 fluorescence intensity (a.u.).

For the sequence “AGAGGGAGGAGGGGACTGGGGCGGCGGCTAGGGTTGGGGACGGAGTCACCTAGTGCAG”, the binding signal was 5330 fluorescence intensity (a.u.).

Take “AATGTCCCATCTTTCGTGTGTAAGGCACGTTAGTCTCAGGCGGAGTCACCTAGTGCAG”: the binding signal was 4290 fluorescence intensity (a.u.).

Turning to “GAATAGACTTAATAAATGAACACAAATATATAGATCATTTCGGAGTCACCTAGTGCAG”, the binding signal is 24900 fluorescence intensity (a.u.).

Turning to “CCCACATGAGGAGATAAGGCCAGCCGGCTCCCACTTCTCCCGGAGTCACCTAGTGCAG”, the binding signal is 11600 fluorescence intensity (a.u.).

Regarding “TCAATCATGAGGACATGGTAATATATTGCTTGTGTTGCTTCGGAGTCACCTAGTGCAG”, the binding signal is 3550 fluorescence intensity (a.u.).

For “GTTTGTTGTCGATACAATCACTAGTTGTGTTTGTTAATTTCGGAGTCACCTAGTGCAG”, the binding signal was 4170 fluorescence intensity (a.u.).

For the sequence “TACCTTGATCGATCGCGAGTAATATCGCATCAGCATTCAACGGAGTCACCTAGTGCAG”, the binding signal was 4050 ± 136 fluorescence intensity (a.u.).

Take “CCCGTCCATCCCATGCAGCCACACAGGCACGGAGGTGGCACGGAGTCACCTAGTGCAG”: the binding signal was 3400 fluorescence intensity (a.u.).

For the sequence “AAGCTGACATAGAATAAATTGTTGGCTGTTTGTTTCTCTACGGAGTCACCTAGTGCAG”, the binding signal is 3500 fluorescence intensity (a.u.).

On to “CGCCCAACCCCAACACATGTACATTTCCCTTGGCTTGCTTCGGAGTCACCTAGTGCAG”, for which the binding signal was 3360 fluorescence intensity (a.u.).

On to “TAGTGCTACAGTACCCACGTGTGCTAATGACGGATTAATTCGGAGTCACCTAGTGCAG”, for which the binding signal is 4060 fluorescence intensity (a.u.).

As for “CTGTTGTCGCCGTGTCCCCTCCCTTCTTCTCCCTCCCCTTCGGAGTCACCTAGTGCAG”, the binding signal was 3450 fluorescence intensity (a.u.).

As to “GTTCCGAACGGATATGACTCATTATTCATTATTATCAGGACGGAGTCACCTAGTGCAG”, the binding signal is 5170 fluorescence intensity (a.u.).

Regarding “TGTCCAACAACTGGCACACGCCTCGTCTTCTTCCGTGACGCGGAGTCACCTAGTGCAG”, the binding signal was 3500 fluorescence intensity (a.u.).

Turning to “TACCGCTTAAAGTAAATATCTTCCTATGGTATTTACGTCGCGGAGTCACCTAGTGCAG”, the binding signal is 3580 fluorescence intensity (a.u.).

Take “CCTTGAGATTTCGATCGGTATCCACATCACCCCAGGACAACGGAGTCACCTAGTGCAG”: the binding signal was 5220 fluorescence intensity (a.u.).

For “CTTTGCGGTGAGGAGACGCGCGCGCATTGGCGCCGCCGTCCGGAGTCACCTAGTGCAG”, the binding signal was 3970 fluorescence intensity (a.u.).

Consider “TGCTCTGCTGCTGCATCCCCGACACGTACGCCCGCATCCGCGGAGTCACCTAGTGCAG”, for which the binding signal was 7200 fluorescence intensity (a.u.).

Consider “ACACTACCAATAGCTGGTACTTATTCAGCACAATAAGCTACGGAGTCACCTAGTGCAG”, for which the binding signal is 46400 fluorescence intensity (a.u.).

In the case of “TCTCGAGTTTCACCATAAAGGACTTGATGCAGCTCTTTTACGGAGTCACCTAGTGCAG”, the binding signal is 3190 fluorescence intensity (a.u.).

For the sequence “GTTTCAGGTTGATAAATCCAGTTGTCATCTCACCAACCGTCGGAGTCACCTAGTGCAG”, the binding signal was 3500 fluorescence intensity (a.u.).

For the sequence “TTTGGCATACCTGGAGCAGATCAGGCAGCACATGGCGAGGCGGAGTCACCTAGTGCAG”, the binding signal was 25600 fluorescence intensity (a.u.).

Turning to “TGAAATGCTATGTTGGTCCAGACTTCCGCTACGAAGGAGACGGAGTCACCTAGTGCAG”, the binding signal was 65100 fluorescence intensity (a.u.).

As to “ACAGTAGAGTGGGGTGTGCATATAATATTCATCAATTAGGCGGAGTCACCTAGTGCAG”, the binding signal is 3700 fluorescence intensity (a.u.).
